# Reference: PubChem BioAssay AID1259405 (NCATS, 2018)
# Purpose: 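Knock-downs that lift recombinant protein yield in hamster ovary cells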 (primary screen)
# Cells: Chinese hamster CHO-K1 ovary cells with stable secreted eGFP expression
# Knock-down reagent: single siRNA against mouse genes, 0.8 pmol siRNA per well (2 µl of 400 nM stock)
# Timing: 3 days
# Detection: 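Per-well intracellular GFP measured by laser scanning cytometry, plus viability from ATP luminescence, each relative to plate median of non-targeting control wells, in %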
# Scale: GFP, % of control: higher = more GFP per well, higher productivity; viability (ATP), % of control: higher = more viable cells (more ATP)
# Hit rule: 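a knock-down is called active if GFP reaches 120% or more of non-targeting control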
# Shown is a random part of about 50,000 deposited reagents. Over the whole deposit, about 4,000 (8%) were called active. 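Mouse siRNA library applied to hamster cells; one well for each siRNA.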 A number with no mark means an inactive call. The numbers tell different reagents against one gene apart. Reagent sequences are not shown.
Target gene,reagent no.,"GFP, % of control","viability (ATP), % of control"
Dhrs13,1,39.7,55.3
Dhrs13,2,92.5,73.7
Dhrs13,3,122 (active),96
Dnajb8,1,70.5,66.4
Dnajb8,2,97.4,86.2
Dnajb8,3,74.7,128
Ang3,1,105,74.5
Ang3,2,66.3,64.5
Ang3,3,90.4,110
Cog2,1,99.7,69.9
Cog2,2,66.3,50.9
Hps6,1,72.4,74.3
Hps6,2,49,60
Hps6,3,138 (active),101
Trappc6b,1,65.3,75.1
Trappc6b,2,74.5,52.2
Trappc6b,3,91.7,83
Pla2g1b,1,70.3,49.3
Pla2g1b,2,55.9,51.8
Pla2g1b,3,73,74.3
Gask1a,1,82.1,93.4
Gask1a,2,57.6,72.7
Gask1a,3,79.4,99.8
Gja8,1,102,56
Gja8,2,56.9,61.7
Gja8,3,71.9,123
Tns4,1,46,49.6
Tns4,2,82.7,35
Tns4,3,76.5,65.5
Pla2g12a,1,69.8,58.8
Pla2g12a,2,62,60.8
Elmod3,1,46.8,65.4
Elmod3,2,50.4,35.8
Elmod3,3,69.6,79.4
Grap2,1,95.7,116
Grap2,2,154 (active),98.1
Zfp426,1,50.9,73
Zfp426,2,53.8,52.4
Zfp426,3,78,105
Or3a1d,1,38.9,30.3
Or3a1d,2,98.7,82.4
Or3a1d,3,30.7,36
Ift81,1,97.5,108
Ift81,2,64.2,72.2
Ift81,3,80.8,98.6
Invs,1,42.5,55.6
Invs,2,82.9,65.9
Invs,3,78.6,74.1
Iigp1b,1,48.6,58.3
Iigp1b,2,93.5,78.8
Iigp1b,3,107,68.6
Stmn4,1,83.5,79.3
Stmn4,2,117,121
Stmn4,3,141 (active),90.9
Notch3,1,124 (active),86.8
Notch3,2,130 (active),85.2
Notch3,3,93.1,61.8

Not a retest: entries from further up.
Target gene,reagent no.,"GFP, % of control","viability (ATP), % of control"
Or3a1d,1,38.9,30.3
Or3a1d,2,98.7,82.4
Or3a1d,3,30.7,36
Ift81,1,97.5,108
Ift81,2,64.2,72.2
Ift81,3,80.8,98.6
